Literature values in patent US11529328B2, “Formulations for pharmaceutical agents” (The Curators of the University of Missouri, priority 2019, dated 2022).
The name of at least one read-out is uncertain.

Details: cited from earlier work

## CC(=O)O[C@@]12CO[C@@H]1C[C@H](O)[C@@]1(C)C(=O)[C@H](O)C3=C(C)[C@@H](OC(=O)[C@H](O)[C@@H](NC(=O)OC(C)(C)C)c4ccccc4)C[C@@](O)([C@@H](OC(=O)c4ccccc4)[C@H]21)C3(C)C [native DXT, Docetaxel]
  Hansen solubility parameter δHAN: 27.14 (J/cm^3)^1/2
